This assay deals with His6-RneNTD (E. coli). Description: pull-down; His-tagged RneNTD (3.5 µg) immobilised on Ni-NTA magnetic agarose beads; 3.5 µg Strep-tagged candidate protein in 250 µL interaction buffer (50 mM NaH2PO4, 300 mM NaCl, 10 mM MgCl2, 40 mM imidazole, 0.005% Tween 20, pH 8.0), 1.5 h at RT, 4 washes; SDS-PAGE/Coomassie; both purified.

Results are given in words; binding and its absence hold for the method and conditions named.

B1: Strep-RNase G (enzyme, UniProt P0A9J0 1-489)
chain: MTAELLVNVTPSETRVAYIDGGILQEIHIEREARRGIVGNIYKGRVSRVLPGMQAAFVDIGLDKAAFLHASDIMPHTECVAGEEQKQFTVRDISELVRQGQDLMVQVVKDPLGTKGARLTTDITLPSRYLVFMPGASHVGVSQRIESESERERLKKVVAEYCDEQGGFIIRTAAEGVGEAELASDAAYLKRVWTKVMERKKRPQTRYQLYGELALAQRVLRDFADAELDRIRVDSRLTYEALLEFTSEYIPEMTSKLEHYTGRQPIFDLFDVENEIQRALERKVELKSGGYLIIDQTEAMTTVDINTGAFVGHRNLDDTIFNTNIEATQAIARQLRLRNLGGIIIIDFIDMNNEDHRRRVLHSLEQALSKDRVKTSVNGFSALGLVEMTRKRTRESIEHVLCNECPTCHGRGTVKTVETVCYEIMREIVRVHHAYDSDRFLVYASPAVAEALKGEESHSLAEVEIFVGKQVKVQIEPLYNQEQFDVVMM
Turning to B1, the binding result is listed as “no binding (tested: 3.5 µg in 250 µL interaction buffer)”.

(Values after publication PMC7430671.)
